Drawing on article PMC4669791, this text covers binding for 8 substances.

By UniProt entry, the sequences of proteins in these tests, tags left out. Residues count along the entry.
UniProt P61604: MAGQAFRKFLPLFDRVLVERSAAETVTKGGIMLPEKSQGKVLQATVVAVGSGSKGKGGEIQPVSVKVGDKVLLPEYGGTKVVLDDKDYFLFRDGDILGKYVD
UniProt P11021, residues 19-654: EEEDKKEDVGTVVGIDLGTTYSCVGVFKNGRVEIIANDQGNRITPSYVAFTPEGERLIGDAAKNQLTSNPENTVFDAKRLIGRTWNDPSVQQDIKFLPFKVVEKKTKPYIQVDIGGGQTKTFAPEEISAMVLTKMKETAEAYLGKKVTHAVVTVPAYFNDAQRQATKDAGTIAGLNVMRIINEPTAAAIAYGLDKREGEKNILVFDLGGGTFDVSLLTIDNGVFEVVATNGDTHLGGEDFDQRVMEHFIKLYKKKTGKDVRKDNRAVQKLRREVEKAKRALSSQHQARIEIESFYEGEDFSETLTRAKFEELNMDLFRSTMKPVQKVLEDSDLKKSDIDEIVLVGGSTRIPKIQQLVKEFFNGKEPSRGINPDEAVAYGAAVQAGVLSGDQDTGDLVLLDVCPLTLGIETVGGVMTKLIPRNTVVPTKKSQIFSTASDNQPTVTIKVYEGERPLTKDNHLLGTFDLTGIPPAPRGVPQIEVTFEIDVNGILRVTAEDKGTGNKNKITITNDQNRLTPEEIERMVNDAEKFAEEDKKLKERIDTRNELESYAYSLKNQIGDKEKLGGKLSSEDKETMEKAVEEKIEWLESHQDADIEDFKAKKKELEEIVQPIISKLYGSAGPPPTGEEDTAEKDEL
UniProt P07355: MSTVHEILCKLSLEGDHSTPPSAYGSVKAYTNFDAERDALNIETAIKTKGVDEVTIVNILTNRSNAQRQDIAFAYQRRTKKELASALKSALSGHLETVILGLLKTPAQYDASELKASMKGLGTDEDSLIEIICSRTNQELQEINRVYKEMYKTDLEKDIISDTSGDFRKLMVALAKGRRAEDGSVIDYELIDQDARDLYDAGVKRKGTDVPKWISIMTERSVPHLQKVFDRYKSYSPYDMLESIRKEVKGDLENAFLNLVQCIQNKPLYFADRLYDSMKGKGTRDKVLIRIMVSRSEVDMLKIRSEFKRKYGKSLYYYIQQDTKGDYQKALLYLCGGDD
UniProt P35579: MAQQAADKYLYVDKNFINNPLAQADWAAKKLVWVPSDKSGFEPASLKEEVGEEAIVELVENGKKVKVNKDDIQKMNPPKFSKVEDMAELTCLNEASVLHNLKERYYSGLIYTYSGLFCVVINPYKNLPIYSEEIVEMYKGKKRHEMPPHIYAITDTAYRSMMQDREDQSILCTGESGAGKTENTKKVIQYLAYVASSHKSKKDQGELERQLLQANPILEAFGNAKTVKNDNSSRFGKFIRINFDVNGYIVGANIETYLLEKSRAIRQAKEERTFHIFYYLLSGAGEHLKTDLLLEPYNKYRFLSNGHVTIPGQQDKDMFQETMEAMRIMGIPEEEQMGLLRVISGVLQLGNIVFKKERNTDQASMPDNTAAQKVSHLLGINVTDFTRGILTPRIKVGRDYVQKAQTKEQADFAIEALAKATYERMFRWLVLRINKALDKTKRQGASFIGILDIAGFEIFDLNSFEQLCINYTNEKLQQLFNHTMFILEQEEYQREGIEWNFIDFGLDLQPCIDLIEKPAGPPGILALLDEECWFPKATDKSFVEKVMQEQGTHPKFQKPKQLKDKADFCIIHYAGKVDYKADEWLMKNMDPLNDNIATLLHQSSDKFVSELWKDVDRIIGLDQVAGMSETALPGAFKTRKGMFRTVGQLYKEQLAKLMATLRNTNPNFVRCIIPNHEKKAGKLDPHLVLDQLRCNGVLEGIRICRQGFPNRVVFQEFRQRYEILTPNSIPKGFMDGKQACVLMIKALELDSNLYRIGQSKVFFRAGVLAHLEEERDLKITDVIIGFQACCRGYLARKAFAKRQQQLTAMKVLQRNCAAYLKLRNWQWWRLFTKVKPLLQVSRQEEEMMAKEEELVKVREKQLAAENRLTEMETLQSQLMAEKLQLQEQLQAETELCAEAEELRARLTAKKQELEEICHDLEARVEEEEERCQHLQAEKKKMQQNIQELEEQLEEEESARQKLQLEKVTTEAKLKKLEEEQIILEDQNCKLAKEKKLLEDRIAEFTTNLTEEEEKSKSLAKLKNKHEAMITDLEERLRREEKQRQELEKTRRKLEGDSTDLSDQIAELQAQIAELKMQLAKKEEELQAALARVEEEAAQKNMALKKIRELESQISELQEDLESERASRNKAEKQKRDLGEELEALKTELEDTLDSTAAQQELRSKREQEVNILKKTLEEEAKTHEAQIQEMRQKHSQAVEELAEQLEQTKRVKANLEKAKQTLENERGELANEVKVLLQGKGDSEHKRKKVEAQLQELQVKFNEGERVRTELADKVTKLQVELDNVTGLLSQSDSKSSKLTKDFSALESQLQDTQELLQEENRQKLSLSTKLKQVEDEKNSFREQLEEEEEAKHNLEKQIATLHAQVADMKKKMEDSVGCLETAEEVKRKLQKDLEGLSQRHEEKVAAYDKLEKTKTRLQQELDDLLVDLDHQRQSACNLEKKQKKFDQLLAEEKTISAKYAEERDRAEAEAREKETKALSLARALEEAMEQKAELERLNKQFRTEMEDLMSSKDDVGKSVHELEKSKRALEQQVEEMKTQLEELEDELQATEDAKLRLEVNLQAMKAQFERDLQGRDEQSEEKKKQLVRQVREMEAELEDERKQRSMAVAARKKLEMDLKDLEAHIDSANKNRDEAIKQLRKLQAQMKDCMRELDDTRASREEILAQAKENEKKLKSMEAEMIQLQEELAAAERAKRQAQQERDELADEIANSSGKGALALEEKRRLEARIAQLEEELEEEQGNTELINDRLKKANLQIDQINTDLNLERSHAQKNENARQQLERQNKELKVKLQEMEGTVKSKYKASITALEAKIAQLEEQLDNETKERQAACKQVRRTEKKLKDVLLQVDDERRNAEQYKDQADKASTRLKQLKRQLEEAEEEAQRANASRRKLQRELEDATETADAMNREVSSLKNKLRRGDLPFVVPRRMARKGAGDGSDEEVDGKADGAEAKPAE
UniProt P35580: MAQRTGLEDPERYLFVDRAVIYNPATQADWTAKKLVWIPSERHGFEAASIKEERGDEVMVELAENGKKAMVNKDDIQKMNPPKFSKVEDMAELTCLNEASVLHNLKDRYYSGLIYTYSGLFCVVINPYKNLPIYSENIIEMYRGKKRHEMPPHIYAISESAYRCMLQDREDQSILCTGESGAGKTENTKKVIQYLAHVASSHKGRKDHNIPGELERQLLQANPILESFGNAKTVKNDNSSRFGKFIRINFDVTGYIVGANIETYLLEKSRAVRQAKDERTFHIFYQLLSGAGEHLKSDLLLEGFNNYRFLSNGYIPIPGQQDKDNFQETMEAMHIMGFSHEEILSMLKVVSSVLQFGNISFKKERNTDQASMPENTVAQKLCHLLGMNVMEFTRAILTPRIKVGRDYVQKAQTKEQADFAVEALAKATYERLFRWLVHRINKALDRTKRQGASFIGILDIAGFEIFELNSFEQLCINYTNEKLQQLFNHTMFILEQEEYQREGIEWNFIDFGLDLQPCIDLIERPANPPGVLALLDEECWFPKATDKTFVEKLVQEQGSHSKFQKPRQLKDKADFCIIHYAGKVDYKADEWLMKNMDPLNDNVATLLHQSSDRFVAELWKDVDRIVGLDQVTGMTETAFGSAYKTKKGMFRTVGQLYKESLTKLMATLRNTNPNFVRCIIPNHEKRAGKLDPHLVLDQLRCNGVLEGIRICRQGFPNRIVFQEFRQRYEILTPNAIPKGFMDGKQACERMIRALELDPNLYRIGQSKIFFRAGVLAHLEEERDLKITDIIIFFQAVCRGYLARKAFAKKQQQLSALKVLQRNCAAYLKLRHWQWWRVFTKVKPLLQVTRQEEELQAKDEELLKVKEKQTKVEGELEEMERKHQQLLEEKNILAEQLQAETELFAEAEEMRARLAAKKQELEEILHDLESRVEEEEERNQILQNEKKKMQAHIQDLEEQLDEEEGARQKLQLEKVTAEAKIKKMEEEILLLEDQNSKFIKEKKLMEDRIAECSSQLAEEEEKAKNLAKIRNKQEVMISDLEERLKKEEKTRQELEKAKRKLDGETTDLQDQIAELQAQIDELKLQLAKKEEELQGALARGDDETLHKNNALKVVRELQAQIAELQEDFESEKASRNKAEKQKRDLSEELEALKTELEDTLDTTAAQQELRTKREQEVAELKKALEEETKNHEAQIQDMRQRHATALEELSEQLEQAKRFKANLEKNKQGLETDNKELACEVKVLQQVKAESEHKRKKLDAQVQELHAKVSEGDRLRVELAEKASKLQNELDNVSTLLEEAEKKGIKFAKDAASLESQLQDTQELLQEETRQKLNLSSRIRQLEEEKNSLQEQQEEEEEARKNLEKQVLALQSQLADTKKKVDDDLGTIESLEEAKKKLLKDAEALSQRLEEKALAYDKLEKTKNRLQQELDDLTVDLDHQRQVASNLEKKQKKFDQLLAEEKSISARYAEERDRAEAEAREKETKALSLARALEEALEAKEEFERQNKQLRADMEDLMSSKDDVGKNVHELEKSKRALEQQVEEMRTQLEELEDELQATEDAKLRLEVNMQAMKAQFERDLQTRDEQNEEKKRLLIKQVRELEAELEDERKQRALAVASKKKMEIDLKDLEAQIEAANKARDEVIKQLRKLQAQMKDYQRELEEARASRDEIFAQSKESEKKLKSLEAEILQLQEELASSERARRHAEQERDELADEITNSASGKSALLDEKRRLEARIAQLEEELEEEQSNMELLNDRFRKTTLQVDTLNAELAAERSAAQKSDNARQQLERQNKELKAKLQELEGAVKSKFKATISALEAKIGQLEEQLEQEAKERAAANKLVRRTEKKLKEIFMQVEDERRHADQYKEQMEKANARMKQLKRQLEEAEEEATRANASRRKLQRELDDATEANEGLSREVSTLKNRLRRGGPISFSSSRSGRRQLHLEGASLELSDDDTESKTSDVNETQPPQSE
UniProt O00217, residues 35-210: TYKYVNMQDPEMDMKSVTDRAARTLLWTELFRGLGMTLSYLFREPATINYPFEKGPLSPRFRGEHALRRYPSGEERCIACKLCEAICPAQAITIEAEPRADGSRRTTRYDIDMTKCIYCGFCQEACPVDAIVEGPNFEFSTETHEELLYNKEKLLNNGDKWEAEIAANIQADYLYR
UniProt P38646, residues 47-679: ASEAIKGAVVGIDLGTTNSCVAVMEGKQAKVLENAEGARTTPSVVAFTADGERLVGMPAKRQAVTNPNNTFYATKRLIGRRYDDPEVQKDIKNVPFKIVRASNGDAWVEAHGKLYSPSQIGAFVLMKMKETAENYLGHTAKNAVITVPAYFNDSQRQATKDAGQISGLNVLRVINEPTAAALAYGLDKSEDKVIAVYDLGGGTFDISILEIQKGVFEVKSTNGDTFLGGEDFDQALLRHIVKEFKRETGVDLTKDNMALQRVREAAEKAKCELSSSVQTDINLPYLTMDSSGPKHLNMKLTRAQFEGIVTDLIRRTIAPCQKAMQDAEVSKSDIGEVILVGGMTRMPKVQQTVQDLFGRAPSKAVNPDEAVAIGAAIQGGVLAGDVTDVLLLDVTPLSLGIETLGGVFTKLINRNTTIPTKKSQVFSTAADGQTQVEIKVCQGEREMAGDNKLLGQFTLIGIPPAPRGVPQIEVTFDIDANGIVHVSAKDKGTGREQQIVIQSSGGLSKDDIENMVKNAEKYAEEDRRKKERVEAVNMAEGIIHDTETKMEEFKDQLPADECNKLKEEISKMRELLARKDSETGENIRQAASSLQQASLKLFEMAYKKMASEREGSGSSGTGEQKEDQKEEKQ

No constants are given. Whether binding was seen depends on the method and setting. Binding seen in cells or lysates may run through a third protein. These calls come from enrichment with a bait or labelling near it, and not all partners need be listed. Where a sequence is shown, tags or fusion partners need not be part of it.

Assay [1] addresses T1, Human Lon protease with Myc tag (human) (UniProt P36776).
T1 sequence: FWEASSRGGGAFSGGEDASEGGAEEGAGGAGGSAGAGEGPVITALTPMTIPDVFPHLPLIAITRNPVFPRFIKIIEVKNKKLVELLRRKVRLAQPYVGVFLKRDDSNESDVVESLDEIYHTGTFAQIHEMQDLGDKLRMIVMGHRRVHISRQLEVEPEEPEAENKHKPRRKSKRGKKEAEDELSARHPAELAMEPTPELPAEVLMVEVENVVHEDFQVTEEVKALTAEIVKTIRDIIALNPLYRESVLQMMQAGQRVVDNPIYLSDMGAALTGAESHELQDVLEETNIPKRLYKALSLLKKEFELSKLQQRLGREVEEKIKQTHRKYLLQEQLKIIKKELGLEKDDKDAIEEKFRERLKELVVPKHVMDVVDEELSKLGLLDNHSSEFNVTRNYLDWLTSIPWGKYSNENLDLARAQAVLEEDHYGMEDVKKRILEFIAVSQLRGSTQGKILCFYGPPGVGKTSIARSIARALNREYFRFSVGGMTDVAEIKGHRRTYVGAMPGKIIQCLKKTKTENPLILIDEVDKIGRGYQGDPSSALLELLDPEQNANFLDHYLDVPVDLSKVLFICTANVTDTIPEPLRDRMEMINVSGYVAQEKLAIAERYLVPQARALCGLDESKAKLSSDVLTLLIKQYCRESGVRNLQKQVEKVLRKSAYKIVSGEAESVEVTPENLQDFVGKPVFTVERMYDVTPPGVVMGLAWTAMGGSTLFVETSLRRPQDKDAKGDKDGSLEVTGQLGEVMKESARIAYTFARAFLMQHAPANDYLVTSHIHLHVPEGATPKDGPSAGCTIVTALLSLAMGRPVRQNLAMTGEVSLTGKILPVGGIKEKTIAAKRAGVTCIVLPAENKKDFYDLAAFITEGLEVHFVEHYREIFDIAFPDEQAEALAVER
Briefly: affinity purification with mass spectrometry; Lon-myc immunocomplex from 293/Lon lysate on anti-c-Myc agarose, washed with NETN, eluted by 6 M urea, in-solution digestion, shotgun nanoLC-MS/MS; three experiments, 293/myc cells as negative control.

Assay [2] deals with T1, Human Lon protease with Myc tag (human). The assay is described as follows: affinity purification with mass spectrometry; anti-myc Co-IP from 293/Lon cells; eluate resolved by 1-D SDS-PAGE, bands digested in gel and identified by mass spectrometry.

In the case of “10 kDa heat-shock protein, mitochondrial (HSP10) (from UniProt P61604 1-102)”, the binding entry in assay [1] is given as “binds”. As for “78 kDa glucose-regulated protein (GRP78) (from UniProt P11021 19-654)”, the binding entry in assay [1] and in assay [2] was “binds” throughout. Consider Annexin A2 (from UniProt P07355 1-339), for which, in assay [1], the binding result was “binds”. “Caspase 14 (human (endogenous in 293)) (enzyme)”: the binding entry in assay [1] is listed as “binds”.

Take Myosin 9 (from UniProt P35579 1-1960): the binding entry in assay [1] and in assay [2] was “binds” throughout. Turning to Myosin 10 (from UniProt P35580 1-1976), the binding result in assay [1] and in assay [2] was “binds” each time. Consider “NADH dehydrogenase [ubiquinone] iron-sulfur protein 8 (NDUFS8) (from UniProt O00217 35-210)”, for which the binding entry in assay [1] is reported as “binds”. Take “Stress-70 protein, mitochondrial (mtHSP70) (from UniProt P38646 47-679)”: the binding result in assay [1] and in assay [2] was “binds” in each case.
